No constants are given. Whether binding was seen depends on the method and setting. Some binding calls cover weakened binding; strength is not graded here.
What was measured:
GST-ERβ (human) [1] = molecular target: GST-ERβ (human) (UniProt Q92731); assay: direct interaction ELISA with fusion proteins containing TR or ER LBDs
GST-ERβ (human) [2] = molecular target: GST-ERβ (human) (UniProt Q92731); assay: direct interaction ELISA: GST-LBD on the well, SRC-1 fusion detected by its 179 epitope tag

The chains behind the UniProt entries cited, without tags or fusion partners. Residues count along the entry.
UniProt Q92731, residues 248-530: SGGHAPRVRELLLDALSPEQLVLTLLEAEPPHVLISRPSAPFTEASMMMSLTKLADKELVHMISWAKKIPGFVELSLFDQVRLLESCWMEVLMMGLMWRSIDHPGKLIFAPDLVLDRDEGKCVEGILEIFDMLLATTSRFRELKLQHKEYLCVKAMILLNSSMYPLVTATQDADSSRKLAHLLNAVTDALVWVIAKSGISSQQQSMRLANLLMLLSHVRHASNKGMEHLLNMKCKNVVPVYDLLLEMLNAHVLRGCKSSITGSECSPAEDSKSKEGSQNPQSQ
UniProt Q15788, residues 597-781: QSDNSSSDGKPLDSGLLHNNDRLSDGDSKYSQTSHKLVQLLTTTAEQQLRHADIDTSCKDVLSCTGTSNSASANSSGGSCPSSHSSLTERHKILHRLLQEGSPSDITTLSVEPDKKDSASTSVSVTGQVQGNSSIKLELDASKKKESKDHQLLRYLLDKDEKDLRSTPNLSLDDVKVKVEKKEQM

GST-SRC-1 (from UniProt Q15788 597-781)
binding (GST-ERβ (human) [1]): binds | binding (GST-ERβ (human) [2]): binds
